Laboratory results taken from publication PMC7466728.
Results are given in words; binding and its absence hold for the method and conditions named. Binding calls can cover weak binding; strength is not graded here.

biological target: T1, AtTT8 (Arabidopsis thaliana) (UniProt Q9FT81); test: two-hybrid; yeast AH109; AtTT8 in pGBKT7 (BD) as bait, BnaPAP2.A7 transcripts in pGADT7 (AD) as prey; colonies from SD/-Leu/-Trp tested on SD/-Leu/-Trp/-His/-Ade
T1 sequence: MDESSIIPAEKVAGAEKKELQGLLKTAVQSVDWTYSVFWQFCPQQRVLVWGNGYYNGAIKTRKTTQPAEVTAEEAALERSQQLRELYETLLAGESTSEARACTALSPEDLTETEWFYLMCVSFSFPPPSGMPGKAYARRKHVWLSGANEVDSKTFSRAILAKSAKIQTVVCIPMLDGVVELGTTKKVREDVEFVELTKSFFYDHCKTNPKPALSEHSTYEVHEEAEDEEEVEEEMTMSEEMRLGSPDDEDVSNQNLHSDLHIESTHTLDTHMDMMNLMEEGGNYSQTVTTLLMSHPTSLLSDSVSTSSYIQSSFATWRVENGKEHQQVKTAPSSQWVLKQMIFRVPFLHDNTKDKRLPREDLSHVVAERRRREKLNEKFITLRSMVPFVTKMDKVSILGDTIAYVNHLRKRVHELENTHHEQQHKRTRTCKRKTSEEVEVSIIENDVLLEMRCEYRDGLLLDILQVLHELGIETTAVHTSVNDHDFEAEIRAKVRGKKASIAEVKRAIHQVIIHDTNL

binding | Substance
no binding | BnaPAP2.A7-395 encoded protein (Brassica napus)
binds | BnaPAP2.A7-744 encoded protein (Brassica napus)
no binding | BnaPAP2.A7-910 encoded protein (Brassica napus)
